According to PubChem BioAssay AID1671190 (National Center for Advancing Translational Sciences (NCATS), 2021):
Among all 580,000 compounds or so, about 6,100 (1.1%) were called active. Inconclusive means that the source gave no clear call. Such entries were picked first, then a sample of the others. Calls follow the shape of the dose curve; as a rule, active = well fitted inhibition curve with a large enough effect; inconclusive = small, poorly fitted or top-dose-only effect, or another doubt; inactive = no such curve, though single readings can be large or run the other way. A potency beside an inconclusive call is a rough fit, not a confirmed value.

The chains behind the UniProt entries cited, without tags or fusion partners.
UniProt P18054, whole entry, looked up: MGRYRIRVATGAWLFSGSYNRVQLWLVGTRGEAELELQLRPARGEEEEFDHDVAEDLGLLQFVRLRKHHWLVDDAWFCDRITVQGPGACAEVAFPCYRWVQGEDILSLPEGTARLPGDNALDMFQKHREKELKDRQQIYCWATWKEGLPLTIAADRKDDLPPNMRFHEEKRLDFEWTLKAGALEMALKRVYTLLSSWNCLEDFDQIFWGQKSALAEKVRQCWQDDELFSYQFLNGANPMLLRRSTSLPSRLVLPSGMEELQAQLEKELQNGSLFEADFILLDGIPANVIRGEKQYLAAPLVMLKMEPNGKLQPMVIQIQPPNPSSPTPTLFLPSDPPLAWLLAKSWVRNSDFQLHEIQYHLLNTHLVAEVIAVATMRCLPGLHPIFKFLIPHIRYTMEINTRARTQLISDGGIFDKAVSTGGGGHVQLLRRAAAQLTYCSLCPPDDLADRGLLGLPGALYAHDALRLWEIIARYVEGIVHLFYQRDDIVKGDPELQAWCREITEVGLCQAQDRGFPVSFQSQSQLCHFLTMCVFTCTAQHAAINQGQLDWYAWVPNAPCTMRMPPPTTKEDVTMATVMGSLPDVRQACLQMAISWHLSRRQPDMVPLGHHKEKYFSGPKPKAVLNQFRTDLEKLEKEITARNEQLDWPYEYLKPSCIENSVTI

The compounds below were run against Polyunsaturated fatty acid lipoxygenase ALOX12 (Homo sapiens) (UniProt P18054) (assay: Primary qHTS assay for inhibitors of human arachidonate 12S-lipoxygenase (ALOX12): Round 2). Details: purified 12hLO, xylenol orange hydroperoxide absorbance; activity change, negative = inhibition: at 108 µM (top of the series) unless noted.
Procedure, shortened: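 Purified human 12hLO at 150 nM in 25 mM Hepes, 0.01% Triton X-100, pH 7.0, preincubated 15 min at room temperature with compound. Reaction started with 40 uM arachidonic acid, 30 min at room temperature. Hydroperoxide measured by Fe-xylenol orange, 573/405 nm absorbance ratio.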
% is scaled to controls: 0 for no effect and ±100 for the full control effect; potency is read from the fitted curve at half-maximal effect.

SMILES	Potency	activity change, negative = inhibition
CC(NC(=O)COc1ccccc1C#N)C12CC3CC(CC(C3)C1)C2 (stereo unspecified)	inconclusive: 35.5 µM [inhibitor, partial curve, poor fit]	
O=C1CN(Cc2ccc(-c3cnc4c(OCc5ccccc5)nccn34)cc2)CCN1		inactive: 30% [at 176 µM]
Cc1cc2cc(NS(=O)(=O)c3ccc4ccccc4c3)ccc2[nH]1	active: 10 µM	
CC1(C)CC(=O)C2=C(C1)NC1=C(C(=O)c3ccccc31)C2c1ccccc1 (stereo unspecified)	inconclusive: 44.7 µM [inhibitor, partial curve, poor fit]	
Cc1c([N+](=O)[O-])c2ccc(O)cc2n1-c1ccccc1		inactive: -14.9%
O=C(NCc1ccccc1)[C@@H]1CCCN1C(=O)[C@H]1CCCN1C(=O)c1ccccc1Cl	inconclusive: 12.6 µM [inhibitor, full curve]	
CCC(=O)c1c[nH]c(C(=O)NCc2cccc(C(F)(F)F)c2)c1	inconclusive: 112 µM [inhibitor, single point]	
c1ccc(-c2cc3nc(NCc4ccc5c(c4)OCO5)ccn3n2)cc1		inactive: -4.56%
O=C(N[C@H]1CCN2C(=O)c3cc(-c4ccc(Cl)cc4)ccc3NC(=O)[C@H]12)C1CCCC1	inconclusive: 15.8 µM [inhibitor, full curve]	
CN1CCCN(Cc2ccccc2Br)CC1	inconclusive: 4.47 µM [inhibitor, full curve, poor fit]	
O=C1CSc2ccc(C(=O)NN(c3ccccc3)c3ccccc3)cc2N1	inconclusive: 56.2 µM [inhibitor, partial curve, poor fit]	
CC(C)Oc1ccc(CN2CCC(n3nccc3NC(=O)CCc3ccccc3)CC2)cc1		inactive: 0%
COc1cccc(NC(=O)C2(Cc3ccccc3)CCCCC(=O)N2)c1 (stereo unspecified)		inactive: 40%
COc1ccc2c(CN(C)c3ccccc3)cc(=O)oc2c1	inconclusive: 10 µM [inhibitor, partial curve, poor fit]	
CC1C(=O)N2CCCc3cc(S(=O)(=O)N(Cc4ccccc4)c4ccccc4)cc1c32 (stereo unspecified)	active: 10 µM	
Cn1nc(C(F)(F)F)c2cc(C(=O)Nc3ccc(F)c(Cl)c3)sc21		inactive: 0%
Cc1nn(C)c2nc(C(C)C)cc(C(=O)N3CCN(c4ncccn4)CC3)c12		inactive: 43.9%
O=C(CCc1ncc(-c2ccccc2)o1)Nc1ccc(N2CCOCC2)cc1N1CCOCC1		inactive: -42.3%
CCOC(=O)C1=C(Nc2ccc(Br)cc2)CC(C)(O)C(C(=O)OCC)C1c1ccccc1 (stereo unspecified)	inconclusive: 3.55 µM [inhibitor, full curve, poor fit]	
COc1cc(C(c2c(C)[nH][nH]c2=O)c2c(C)[nH][nH]c2=O)ccc1OS(=O)(=O)c1ccc(C)cc1		inactive: 5.76%
O=C(CCn1nc(-c2ccc(Cl)cc2)c2ccccc2c1=O)N1CCCCC1	inconclusive: 5.62 µM [inhibitor, partial curve, poor fit]	

Rewritten comma-delimited: entries from further up.
SMILES,Potency,"activity change, negative = inhibition"
Cn1nc(C(F)(F)F)c2cc(C(=O)Nc3ccc(F)c(Cl)c3)sc21,,inactive: 0%
COc1cc(C(c2c(C)[nH][nH]c2=O)c2c(C)[nH][nH]c2=O)ccc1OS(=O)(=O)c1ccc(C)cc1,,inactive: 5.76%

Remaining list, next part

SMILES	Potency	activity change, negative = inhibition
CCCOc1ccc(-c2[nH]c3c(c2-c2ccc(OC)cc2)c(=O)[nH]c(=O)n3C)cc1	inconclusive: 56.2 µM [inhibitor, partial curve, poor fit]	
CN(C)c1ccc(-c2nccc(Nc3ccc(F)cc3)n2)cc1	inconclusive: 50.1 µM [inhibitor, partial curve, poor fit]	
O=C(CCc1ccsc1)N1CCCC(C(F)(F)F)C1 (stereo unspecified)		inactive: 18.4%
O=C1CS(=O)(=O)N(Cc2ccccc2F)c2ccc(Br)cc21	inconclusive: 31.6 µM [inhibitor, partial curve, poor fit]	
COc1ccc(C(=O)/C(C#N)=C\c2ccc(Cl)cc2Cl)cc1	inconclusive: 31.6 µM [inhibitor, partial curve, poor fit]	
CCC1(CC)NC(=O)N(Cc2coc(-c3ccc(Cl)cc3)n2)C1=O	inconclusive: 63.1 µM [inhibitor, partial curve, poor fit]	
COC(=O)C1=C(C)N(Cc2ccccc2)C(=NCc2ccccc2)N[C@H]1c1cccc(F)c1	inconclusive: 50.1 µM [inhibitor, partial curve, poor fit]	
CCn1c(SCC(=O)N2CCCCCC2)nc2c(c1=O)SCC2	inconclusive: 89.1 µM [inhibitor, partial curve, poor fit]	
Cc1cccc(Nc2nnc(SC/C(O)=C(\C#N)c3nc4ccccc4[nH]3)s2)c1	inconclusive: 44.7 µM [inhibitor, partial curve, poor fit]	
Cc1ccc(C(=O)Nc2ccccc2C(=O)O)cc1S(=O)(=O)NC1CCCCC1		inactive: 437%
CCN(Cc1cccnc1)C(=O)c1cc(-c2cnn(CC)c2)nc2cc(C)ccc12	inconclusive: 31.6 µM [inhibitor, partial curve]	
O=c1[nH]c2ccccc2cc1-c1nnn(-c2ccc(Cl)c(Cl)c2)n1	inconclusive: 63.1 µM [inhibitor, partial curve, poor fit]	
COc1ccc(C(=O)Nc2oc3ccccc3c(=O)c2-c2cccc(Cl)c2)cc1OC	inconclusive: 79.4 µM [inhibitor, single point]	
COc1ccc2c(C(=O)c3ccc(C)cc3)n(Cc3ccc(C(N)=O)cc3)[n+]([O-])c2c1	inconclusive: 50.1 µM [inhibitor, partial curve, poor fit]	
O=C([C@@H]1C[C@H](Oc2cccnc2)CN1C(=O)CCc1c[nH]c2ccccc12)N1CCOCC1		inactive: 28.7%
Cn1nnnc1SCCNCc1ccc(OCc2ccccc2Cl)cc1	inconclusive: 50.1 µM [inhibitor, partial curve]	
Cc1cccc(OCCCN2CCOCC2)c1C	inconclusive: 0.251 µM [inhibitor, full curve, poor fit]	
COc1ccc2ccc(OCc3nc(C(=O)N4CCNC(=O)C4C)co3)cc2c1 (stereo unspecified)		inactive: 28.6%
COc1ccc(NC(=S)NC(NC(C)=O)C(Cl)(Cl)Cl)c([N+](=O)[O-])c1 (stereo unspecified)	inconclusive: 56.2 µM [inhibitor, partial curve, poor fit]	
CC(NC(=O)c1nn(Cc2ccccc2)c(=O)c2ccccc12)c1ccco1 (stereo unspecified)	inconclusive: 28.2 µM [inhibitor, partial curve, poor fit]	
